Series [1] has as its target Gsx2 167-305 I234E (Mus musculus) (UniProt P31316). Put plainly: EMSA. The settings on record: tau only in figure, EMSA: 35 nM probe, 15 min room temperature, recombinant protein, residues 167-305, protein details: N-terminal His-tag, cleaved with PreScission, label: 5' IRDye700 on complementary strand (linker S14).
Series [2] addresses Gsx2 167-305 (Mus musculus) (UniProt P31316). Kind of series: EMSA. The settings on record: not strongly cooperative, tau only in figure; EMSA: 35 nM probe, 15 min room temperature; recombinant protein; residues 167-305; protein details: N-terminal His-tag, cleaved with PreScission; label: 5' IRDye700 on complementary strand (linker S14).

The chains behind the UniProt entries cited, without tags or fusion partners. Residues count along the entry.
UniProt P31316, 167-305 I234E: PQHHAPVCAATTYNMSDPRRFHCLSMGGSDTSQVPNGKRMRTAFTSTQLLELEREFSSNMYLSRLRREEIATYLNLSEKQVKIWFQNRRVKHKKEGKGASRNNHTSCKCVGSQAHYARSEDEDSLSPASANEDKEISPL
UniProt P31316, 167-305: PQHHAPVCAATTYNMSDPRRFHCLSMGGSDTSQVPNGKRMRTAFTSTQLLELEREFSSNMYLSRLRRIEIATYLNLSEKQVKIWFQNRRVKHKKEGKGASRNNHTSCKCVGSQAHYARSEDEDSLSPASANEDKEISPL

For at least one entry, the source does not settle the construct or the ends of the probe. At least one verdict was read from the data and is not stated in words by the source.

Consider “TCCAACTAATTAAAATTTAATTCGTAGTGCGGGCGTGGCT (double strand) [7bpS / AAATT spacer dimer probe]”, for which the binding result in series [1] (cooperativity compromised) is recorded as “binds”.

In the case of “TCCAACTAATTAAAGATTTAATTCGTAGTGCGGGCGTGGCT (double strand) [8bpS dimer probe]”, the binding result in series [2] and in series [1] (not cooperative) was “binds” in each case.

Source of the values: publication PMC11260452.
